Drawing on publication PMC11625884, this text covers binding for one substance.

Protein sequences, listed by entry. Tags and fused reporters are not part of them.
UniProt Q9C0C7: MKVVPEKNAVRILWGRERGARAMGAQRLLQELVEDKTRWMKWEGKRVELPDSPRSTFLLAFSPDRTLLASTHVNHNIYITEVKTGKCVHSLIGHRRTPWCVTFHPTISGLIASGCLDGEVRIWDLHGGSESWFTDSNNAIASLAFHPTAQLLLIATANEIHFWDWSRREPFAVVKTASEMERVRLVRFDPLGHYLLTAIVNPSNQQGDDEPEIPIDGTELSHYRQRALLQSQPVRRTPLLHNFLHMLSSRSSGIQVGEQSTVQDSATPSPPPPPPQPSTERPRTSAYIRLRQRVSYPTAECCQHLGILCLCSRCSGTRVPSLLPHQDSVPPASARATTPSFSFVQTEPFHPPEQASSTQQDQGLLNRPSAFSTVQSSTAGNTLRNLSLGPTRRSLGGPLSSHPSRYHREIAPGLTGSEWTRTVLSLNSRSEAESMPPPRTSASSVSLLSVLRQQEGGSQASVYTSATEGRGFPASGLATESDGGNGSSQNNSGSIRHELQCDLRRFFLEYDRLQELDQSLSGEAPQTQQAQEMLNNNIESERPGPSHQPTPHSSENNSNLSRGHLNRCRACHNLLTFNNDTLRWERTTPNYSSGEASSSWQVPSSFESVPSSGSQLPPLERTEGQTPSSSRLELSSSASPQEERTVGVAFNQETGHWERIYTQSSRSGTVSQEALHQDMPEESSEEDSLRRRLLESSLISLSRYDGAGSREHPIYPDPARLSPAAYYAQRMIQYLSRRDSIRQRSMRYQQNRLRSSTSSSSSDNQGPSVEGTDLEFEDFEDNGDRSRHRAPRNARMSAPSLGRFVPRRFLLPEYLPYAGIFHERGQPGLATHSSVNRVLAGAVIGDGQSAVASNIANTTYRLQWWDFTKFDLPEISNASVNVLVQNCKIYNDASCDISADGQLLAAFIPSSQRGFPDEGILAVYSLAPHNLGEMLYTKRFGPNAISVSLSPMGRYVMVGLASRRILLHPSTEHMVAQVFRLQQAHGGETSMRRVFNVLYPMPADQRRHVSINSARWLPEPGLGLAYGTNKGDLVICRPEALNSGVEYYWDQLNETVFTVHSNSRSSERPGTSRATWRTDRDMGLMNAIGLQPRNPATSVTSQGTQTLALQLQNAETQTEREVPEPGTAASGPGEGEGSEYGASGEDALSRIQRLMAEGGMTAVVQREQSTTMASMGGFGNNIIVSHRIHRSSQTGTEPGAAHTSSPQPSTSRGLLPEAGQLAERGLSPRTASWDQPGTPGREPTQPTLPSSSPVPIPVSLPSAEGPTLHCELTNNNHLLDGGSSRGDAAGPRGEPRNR
UniProt P63167: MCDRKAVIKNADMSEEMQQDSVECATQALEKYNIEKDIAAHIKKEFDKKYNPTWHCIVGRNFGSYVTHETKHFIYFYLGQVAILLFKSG

These are yes or no findings as the source states them, for the method shown. Binding seen in cells or lysates may run through a third protein. Some entries that bind do so weakly or less than the wild type.

The experiment concerns the target AMBRA1^WT (activating molecule in Beclin1-regulated autophagy, wild type) (UniProt Q9C0C7). Description: co-IP; AMBRA1 antibody (Proteintech) coupled to Dynabeads, mixed with lysate of SHSY5Y cells overexpressing AMBRA1 constructs; washed; western blot for the protein of interest.

Take “dynein light chain (DLC)1 (from UniProt P63167 1-89)”: the binding entry is recorded as “binds”.
